Test results as given in the supplement of paper PMC12578635.
The other results are listed elsewhere or left out. Cut-off read from the data, not from the text of the source: active = 150% or more and inactive = the rest. Many values rest on one well or one pass, so single values are uncertain.

System: Staphylococcus aureus JE2-lux inside RAW 264.7 macrophages
Assay: intracellular bacterial bioluminescence relative to DMSO vehicle; higher = higher intracellular bacterial metabolic activity
Conditions: 10 µM; treatment time 4 h; gentamicin 50 µg/ml

Intracellular bacterial bioluminescence, inactive:
O=C(CCS(=O)(=O)c1ccc(F)cc1)Nc1ncc(S(=O)(=O)c2ccc([N+](=O)[O-])cc2)s1 62.7%
Cc1ccc(C2CC(=O)c3cnc(Nc4ccc(C)cc4C)nc3C2)cc1 (configuration not stated) 6.78%
COc1cc(NC(=O)c2cccc3nccnc23)ccc1NC(=O)C1CCCCC1 92.2%
Clc1ccc(-n2cc(-c3ccccc3)c3c(NCCCn4ccnc4)ncnc32)cc1 68.5%
COc1ccccc1OCC(=O)N1c2ccccc2CC1C(N)=O (configuration not stated) 104%
CCOC(=O)Cc1csc(NC(=O)CSc2nc(=O)[nH]c3c2CCCC3)n1 88.3%
COc1cccc2sc(Nc3ccccc3)nc12 89%
O=C(c1noc2ccc(S(=O)(=O)N3CCC(Cc4ccccc4)CC3)cc12)N1CCCC1 46.3%
O=C(CSc1nc(O)c2c(n1)CCC2)Nc1cccc2ccccc12 104%
CCNc1nc(C(N)=O)c(NC(=O)c2cc(-c3ccc(OC)cc3)nc3ccccc23)s1 90.2%
N#C/C(=C\Nc1ccc2c(c1)OCO2)c1nc(-c2ccc([N+](=O)[O-])cc2)cs1 79.1%
Cn1c(=O)c(C(=O)NCCc2c[nH]c3ccccc23)cc2cccnc21 125%
COc1cccc(C(=O)CC2(O)C(=O)Nc3c(C)cccc32)c1 (configuration not stated) 79.6%
CCn1c(=O)c(N2CCN(C(=O)c3ccc(F)c(Cl)c3)CC2)c(C)n(-c2ccccc2)c1=O 57.2%
COc1cc(/C=N/Nc2ncnc3[nH]cnc23)cc(OC)c1OC 103%
NS(=O)(=O)c1ccc(CCNC(=O)C(=O)Nc2cc3c4c(c2)CC(=O)N4CCC3)cc1 124%
Cc1nc2c(C)cccc2cc1C(=O)Nc1cccc(C(=O)N2CCCCC2)c1 50.5%
C#CCn1/c(=N/C(=O)CCCC)sc2cc(S(N)(=O)=O)ccc21 86.8%
O=C(NCc1cccnc1)c1cnc2n(c1=O)CCS2 108%
COC(=O)Cn1/c(=N/C(=O)c2ccccc2C)sc2cc(S(C)(=O)=O)ccc21 148%
O=C(CSc1ccc([N+](=O)[O-])cc1[N+](=O)[O-])NC1CCS(=O)(=O)C1 (configuration not stated) 85.8%
CC(C)c1cc(C(=O)N2CCc3ccccc32)nn1C1CCS(=O)(=O)C1 (configuration not stated) 114%
N#C/C(=C\c1c[nH]c2ccc(Br)cc12)C(=O)N1CCOCC1 61%
Cn1c(=O)[nH]c(=O)c2[nH]c(CN(Cc3ccccc3)Cc3ccccc3)nc21 88.3%
COc1ccc(C2C3=C(CC(C)(C)CC3=O)Nc3nc(SC(C)C)[nH]c(=O)c32)cc1 (configuration not stated) 116%
O=C(/C=C/c1ccccc1)NN1C(=O)c2ccccc2C1=O 65.6%
O=C(CSc1nnc(-c2ccccc2)c(-c2ccccc2)n1)Nc1nccs1 133%
CCOC(=O)c1[nH]c2ccccc2c1NC(=S)Nc1cccc(Cl)c1C 39.5%
O=C(CC1Nc2ccccc2NC1=O)Nc1cccc(C(=O)O)c1 (configuration not stated) 74.6%
O=C(CSc1nc2ccccc2o1)OCC(=O)c1ccc(F)cc1 93.9%
COc1ccc2nc(NC(=O)Cn3c(=O)c4cnc(-c5ccccc5)nc4n(C)c3=O)sc2c1 107%
O=C(CC(C(=O)O)N1CCNCC1)Nc1ccc(Br)cc1 (configuration not stated) 106%
C=CCn1c(SCC(=O)Nc2ccc3c(c2)OCCO3)nc2scc(-c3ccco3)c2c1=O 30.2%
CCc1ccc(NC(=O)CS(=O)CC(=O)Nc2ccc(-n3cnnn3)c(C)c2)cc1 (configuration not stated) 63.6%
COc1ccc(C(=O)CSc2nc(=O)n(Cc3cccnc3)c3c2CCC3)cc1 73.5%
Cc1c(C)n2c(SCc3ccc(C(F)(F)F)cc3)nnc2[nH]c1=O 107%
O=C(Nc1cccc(I)c1)/C(O)=C1\C(=O)Nc2ccccc21 112%
O=C1C2C3CC(C2C(=O)N1c1ccccc1)C1C(c2ccc(O)cc2)c2sc(=O)[nH]c2SC31 (configuration not stated) 74.5%
CCOC(=O)C1CCN(S(=O)(=O)CCNC(=O)c2ccc3c(c2)OCO3)CC1 108%
COc1ccc(NC(=O)C2CCN(C(=O)Nc3cccc(Cl)c3)CC2)cc1OC 84.9%
COc1ccc2[nH]cc(CCNC(=O)c3ccc4nnc(C)n4c3)c2c1 92.3%
Cc1nc(N2CCCC2)ncc1C(=O)NC(c1ccccc1)c1cccnc1 (configuration not stated) 114%
CCCn1c(=O)c2cc(F)ccc2n2c(=S)[nH]nc12 111%
CNc1n[nH]c(N)c1-c1nc(-c2ccc(OC)cc2)no1 106%
Cc1ccc2nc(Nc3ccc(Cl)cc3)c(C=O)c(=O)n2c1 133%
COc1ccc(CC(=O)Nc2c3c(nn2-c2ccc(C)cc2)CSC3)cc1OC 110%
CCn1cc(NC(=O)NCCc2ccc(S(N)(=O)=O)cc2)c2ccccc21 130%
CCOC(=O)c1ccc(N2C(=O)C3Sc4[nH]c(=O)sc4C(/C=C/c4ccccc4)C3C2=O)cc1 (configuration not stated) 65.7%
Cc1ccc(S(=O)(=O)c2nccn3nc(-c4ccc(Cl)cc4)cc23)cc1 102%
Cc1ccccc1NC(=O)CSc1cc[nH]c(=O)n1 105%
COc1cccc(NC(=O)CCc2c(C)nn(-c3nc(C)c(C)s3)c2O)c1 119%
CC1(C)CC(=O)c2sc(NC(=O)c3cc(-c4cccs4)nc4ccccc34)nc2C1 83.8%
Cc1cc(C)c(S(=O)(=O)Nc2cnc(N3CCNCC3)c(C(=O)NC3CC3)c2)cc1C 92.2%
COc1cc(OC)c(NC(=O)C2CCCN(c3nc(C)nc4oc(C)c(C)c34)C2)cc1Cl (configuration not stated) 117%
N#Cc1c(N)nc(SCC(=O)Nc2ccccc2)c(C#N)c1-c1ccccc1 109%
COC(=O)c1ccccc1NS(=O)(=O)c1cccc2cccnc12 117%
CCc1cccc(C)c1NC(=O)CSc1nnc2ccc(C(=O)Nc3cccc(C)c3)cn12 70.4%

Copied from the results shown for reference:
Intracellular bacterial bioluminescence, inactive:
COc1cc(NC(=O)c2cccc3nccnc23)ccc1NC(=O)C1CCCCC1 92.2%
Clc1ccc(-n2cc(-c3ccccc3)c3c(NCCCn4ccnc4)ncnc32)cc1 68.5%
COc1ccccc1OCC(=O)N1c2ccccc2CC1C(N)=O (configuration not stated) 104%
CCOC(=O)Cc1csc(NC(=O)CSc2nc(=O)[nH]c3c2CCCC3)n1 88.3%
